These are yes or no findings as the source states them, for the method shown. Binding seen in cells or lysates may run through a third protein. Some binding calls cover weakened binding; strength is not graded here. Tags and fused reporters may be left off the sequences shown.
Experiments:
Experiment in all cases: pull-down on streptavidin beads from cell lysate, TEV release, Ni beads, MS/MS identification; listed D (direct, by literature)
[1] = target: T1, syntaxin 6 (human) (UniProt O43752)
T1 sequence (looked up): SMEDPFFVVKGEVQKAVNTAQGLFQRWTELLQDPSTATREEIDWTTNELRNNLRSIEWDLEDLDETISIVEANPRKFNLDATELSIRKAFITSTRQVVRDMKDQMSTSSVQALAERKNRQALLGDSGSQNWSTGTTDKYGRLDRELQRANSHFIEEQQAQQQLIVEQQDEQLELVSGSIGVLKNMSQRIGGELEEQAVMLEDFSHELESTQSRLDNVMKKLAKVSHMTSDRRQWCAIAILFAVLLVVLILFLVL

[2] = target: T2, syntaxin 18 (human) (UniProt Q9P2W9)
T2 sequence (looked up): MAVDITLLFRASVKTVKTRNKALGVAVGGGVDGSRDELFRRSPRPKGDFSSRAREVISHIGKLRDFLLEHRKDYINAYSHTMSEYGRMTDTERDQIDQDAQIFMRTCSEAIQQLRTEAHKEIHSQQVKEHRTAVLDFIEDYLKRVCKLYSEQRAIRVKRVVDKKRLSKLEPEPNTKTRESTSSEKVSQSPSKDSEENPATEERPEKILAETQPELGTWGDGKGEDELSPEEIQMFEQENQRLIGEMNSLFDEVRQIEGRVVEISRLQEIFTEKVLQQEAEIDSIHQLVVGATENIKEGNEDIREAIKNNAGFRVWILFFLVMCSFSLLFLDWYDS

[3] = target: T3, syntaxin 5 - human (human) (UniProt Q13190)
T3 sequence (looked up): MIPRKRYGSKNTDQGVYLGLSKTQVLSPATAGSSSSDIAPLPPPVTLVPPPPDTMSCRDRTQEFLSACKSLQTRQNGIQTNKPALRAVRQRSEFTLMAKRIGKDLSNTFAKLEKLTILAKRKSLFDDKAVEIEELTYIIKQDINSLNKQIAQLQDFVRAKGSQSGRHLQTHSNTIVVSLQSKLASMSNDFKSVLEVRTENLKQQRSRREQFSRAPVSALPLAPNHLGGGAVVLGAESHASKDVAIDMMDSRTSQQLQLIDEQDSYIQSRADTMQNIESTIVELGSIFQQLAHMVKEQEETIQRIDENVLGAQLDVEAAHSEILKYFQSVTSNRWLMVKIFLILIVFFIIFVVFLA

[4] = target: T4, Similar to syntaxin 12 (human) (UniProt Q86Y82)
T4 sequence (looked up): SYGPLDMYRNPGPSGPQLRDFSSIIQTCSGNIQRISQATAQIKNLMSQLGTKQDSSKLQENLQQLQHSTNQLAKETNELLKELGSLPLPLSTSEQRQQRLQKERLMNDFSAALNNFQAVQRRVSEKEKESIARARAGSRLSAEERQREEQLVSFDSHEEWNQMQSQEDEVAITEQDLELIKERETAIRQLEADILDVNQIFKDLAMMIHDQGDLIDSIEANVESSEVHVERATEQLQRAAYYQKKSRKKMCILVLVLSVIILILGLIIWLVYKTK

[5] = target: T5, cis-Golgi SNARE p28 (human) (UniProt O95249)
T5 sequence (looked up): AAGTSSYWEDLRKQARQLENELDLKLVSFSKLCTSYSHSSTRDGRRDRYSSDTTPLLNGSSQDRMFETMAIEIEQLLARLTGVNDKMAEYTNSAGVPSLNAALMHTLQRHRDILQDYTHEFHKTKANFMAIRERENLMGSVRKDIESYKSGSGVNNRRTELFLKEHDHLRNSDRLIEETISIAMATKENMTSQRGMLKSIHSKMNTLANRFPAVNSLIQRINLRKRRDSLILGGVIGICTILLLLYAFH

Measured: binding

B1: E24-tagged NAPA (AviTag-TEV cleavage site-His6-PrC-NAPA), biotinylated (protein)
chain: MSGLNDIFEAQKIEWHEGAISAENLYFQGSSAHHHHHHGSEDQVDPRLIDGKMDNSGKEAEAMALLAEAERKVKNSQSFFSGLFGGSSKIEEACEIYARAANMFKMAKNWSAAGNAFCQAAQLHLQLQSKHDAATCFVDAGNAFKKADPQEAINCLMRAIEIYTDMGRFTIAAKHHISIAEIYETELVDIEKAIAHYEQSADYYKGEESNSSANKCLLKVAGYAALLEQYQKAIDIYEQVGTNAMDSPLLKYSAKDYFFKAALCHFCIDMLNAKLAVQKYEELFPAFSDSRECKLMKKLLEAHEEQNVDSYTESVKEYDSISRLDQWLTTMLLRIKKTIQGDEEDLR
modifications: biotin attached to the AviTag (BirA recognition sequence) by BirA in vitro
binds: all assays above

Source: US20050118646A1
